Assay results reported in paper PMC5967306.
These are yes or no findings as the source states them, for the method shown. Binding seen in cells or lysates may run through a third protein. Some results given as binding are weak or reduced against the parent protein; the word gives no strength.

Biological target: p53 (human (endogenous in HEK-293)) (UniProt P04637)
Assay: co-IP; HEK-293 cell lysate immunoprecipitated with p53 (DO-1) antibody, immunoblotted

- binding: binds
B1: FAM188B (protein, UniProt Q4G0A6 1-757)
chain: MDSLFVEEVAASLVREFLSRKGLKKTCVTMDQERPRSDLSINNRNDLRKVLHLEFLYKENKAKENPLKTSLELITRYFLDHFGNTANNFTQDTPIPALSVPKKNNKVPSRCSETTLVNIYDLSDEDAGWRTSLSETSKARHDNLDGDVLGNFVSSKRPPHKSKPMQTVPGETPVLTSAWEKIDKLHSEPSLDVKRMGENSRPKSGLIVRGMMSGPIASSPQDSFHRHYLRRSSPSSSSTQPQEESRKVPELFVCTQQDILASSNSSPSRTSLGQLSELTVERQKTTASSPPHLPSKRLPPWDRARPRDPSEDTPAVDGSTDTDRMPLKLYLPGGNSRMTQERLERAFKRQGSQPAPVRKNQLLPSDKVDGELGALRLEDVEDELIREEVILSPVPSVLKLQTASKPIDLSVAKEIKTLLFGSSFCCFNEEWKLQSFSFSNTASLKYGIVQNKGGPCGVLAAVQGCVLQKLLFEGDSKADCAQGLQPSDAHRTRCLVLALADIVWRAGGRERAVVALASRTQQFSPTGKYKADGVLETLTLHSLTCYEDLVTFLQQSIHQFEVGPYGCILLTLSAILSRSTELIRQDFDVPTSHLIGAHGYCTQELVNLLLTGKAVSNVFNDVVELDSGDGNITLLRGIAARSDIGFLSLFEHYNMCQVGCFLKTPRFPIWVVCSESHFSILFSLQPGLLRDWRTERLFDLYYYDGLANQQEQIRLTIDTTQTISEDTDNDLVPPLELCIRTKWKGASVNWNGSDPIL
